The other results are listed elsewhere or left out.

By UniProt entry, the sequences of proteins in these tests, tags left out. Where a name states a change or a piece, a line headed by the entry shows the natural chain unless it says otherwise.
UniProt P78560: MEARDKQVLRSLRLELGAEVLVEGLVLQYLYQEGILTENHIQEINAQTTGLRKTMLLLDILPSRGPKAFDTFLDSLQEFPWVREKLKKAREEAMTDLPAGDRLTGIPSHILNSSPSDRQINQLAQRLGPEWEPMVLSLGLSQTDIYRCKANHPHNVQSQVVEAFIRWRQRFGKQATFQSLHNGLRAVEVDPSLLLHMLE
UniProt P14406, whole entry, looked up: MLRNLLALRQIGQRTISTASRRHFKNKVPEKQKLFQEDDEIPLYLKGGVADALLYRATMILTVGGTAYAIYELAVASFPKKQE
UniProt P61923: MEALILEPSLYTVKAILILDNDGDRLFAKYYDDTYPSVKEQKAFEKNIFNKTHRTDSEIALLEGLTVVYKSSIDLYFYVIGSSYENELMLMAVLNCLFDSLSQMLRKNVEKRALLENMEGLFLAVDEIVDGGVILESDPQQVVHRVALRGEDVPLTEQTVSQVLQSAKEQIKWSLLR
UniProt Q9H9A5, whole entry, looked up: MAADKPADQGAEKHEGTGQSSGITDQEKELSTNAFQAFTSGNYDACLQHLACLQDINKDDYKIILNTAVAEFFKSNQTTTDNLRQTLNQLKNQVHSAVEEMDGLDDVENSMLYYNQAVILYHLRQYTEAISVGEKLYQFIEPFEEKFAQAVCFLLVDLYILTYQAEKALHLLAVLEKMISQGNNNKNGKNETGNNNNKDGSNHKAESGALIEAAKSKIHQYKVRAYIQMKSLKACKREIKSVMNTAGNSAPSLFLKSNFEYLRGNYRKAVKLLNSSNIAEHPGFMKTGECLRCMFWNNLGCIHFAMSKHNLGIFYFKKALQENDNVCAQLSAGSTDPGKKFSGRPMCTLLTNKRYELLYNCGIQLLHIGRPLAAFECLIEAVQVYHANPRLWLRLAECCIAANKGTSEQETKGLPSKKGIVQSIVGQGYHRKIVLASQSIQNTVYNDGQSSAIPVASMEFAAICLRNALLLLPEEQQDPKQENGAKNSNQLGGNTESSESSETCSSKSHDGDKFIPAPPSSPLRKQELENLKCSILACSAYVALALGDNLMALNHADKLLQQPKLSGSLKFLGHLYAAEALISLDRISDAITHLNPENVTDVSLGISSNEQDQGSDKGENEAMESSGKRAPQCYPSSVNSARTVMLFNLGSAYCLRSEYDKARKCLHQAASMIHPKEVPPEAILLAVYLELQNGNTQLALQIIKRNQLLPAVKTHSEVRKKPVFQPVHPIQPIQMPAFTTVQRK
UniProt P31146: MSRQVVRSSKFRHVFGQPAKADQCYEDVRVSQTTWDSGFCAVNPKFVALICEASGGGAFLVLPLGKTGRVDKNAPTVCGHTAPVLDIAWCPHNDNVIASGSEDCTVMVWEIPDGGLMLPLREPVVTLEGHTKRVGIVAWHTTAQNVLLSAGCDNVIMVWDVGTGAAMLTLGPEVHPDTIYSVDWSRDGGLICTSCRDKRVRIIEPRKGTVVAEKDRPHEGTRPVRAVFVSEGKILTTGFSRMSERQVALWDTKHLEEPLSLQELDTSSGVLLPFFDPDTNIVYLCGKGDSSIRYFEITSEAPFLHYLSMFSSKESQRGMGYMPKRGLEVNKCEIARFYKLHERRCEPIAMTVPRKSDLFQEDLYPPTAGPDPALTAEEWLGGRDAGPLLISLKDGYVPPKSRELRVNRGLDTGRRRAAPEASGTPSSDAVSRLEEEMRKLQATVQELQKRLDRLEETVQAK
UniProt Q8NI60: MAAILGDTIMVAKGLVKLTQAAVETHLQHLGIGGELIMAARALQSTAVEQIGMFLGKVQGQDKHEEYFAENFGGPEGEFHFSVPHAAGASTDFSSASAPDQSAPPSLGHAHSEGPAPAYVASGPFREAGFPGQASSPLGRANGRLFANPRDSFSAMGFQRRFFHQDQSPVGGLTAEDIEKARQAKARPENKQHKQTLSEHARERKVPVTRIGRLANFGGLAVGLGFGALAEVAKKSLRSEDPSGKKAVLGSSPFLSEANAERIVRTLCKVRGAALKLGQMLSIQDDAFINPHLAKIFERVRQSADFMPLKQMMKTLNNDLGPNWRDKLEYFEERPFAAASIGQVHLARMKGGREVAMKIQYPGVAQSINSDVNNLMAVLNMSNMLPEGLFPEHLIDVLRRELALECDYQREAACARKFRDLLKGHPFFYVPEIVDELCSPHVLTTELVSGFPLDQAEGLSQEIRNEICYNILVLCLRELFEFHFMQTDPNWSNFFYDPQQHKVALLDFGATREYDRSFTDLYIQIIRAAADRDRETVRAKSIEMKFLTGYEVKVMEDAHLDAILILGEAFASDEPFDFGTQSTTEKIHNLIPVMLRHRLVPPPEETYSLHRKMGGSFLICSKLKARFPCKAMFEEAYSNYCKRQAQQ
UniProt O14579: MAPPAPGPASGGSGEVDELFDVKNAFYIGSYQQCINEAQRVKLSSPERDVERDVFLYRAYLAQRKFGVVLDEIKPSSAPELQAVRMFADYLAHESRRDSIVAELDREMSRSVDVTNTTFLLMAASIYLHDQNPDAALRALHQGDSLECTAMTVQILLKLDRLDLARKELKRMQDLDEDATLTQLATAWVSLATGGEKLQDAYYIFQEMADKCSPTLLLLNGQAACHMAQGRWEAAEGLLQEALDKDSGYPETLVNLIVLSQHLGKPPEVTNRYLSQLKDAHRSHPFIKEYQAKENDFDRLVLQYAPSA
UniProt Q9Y646: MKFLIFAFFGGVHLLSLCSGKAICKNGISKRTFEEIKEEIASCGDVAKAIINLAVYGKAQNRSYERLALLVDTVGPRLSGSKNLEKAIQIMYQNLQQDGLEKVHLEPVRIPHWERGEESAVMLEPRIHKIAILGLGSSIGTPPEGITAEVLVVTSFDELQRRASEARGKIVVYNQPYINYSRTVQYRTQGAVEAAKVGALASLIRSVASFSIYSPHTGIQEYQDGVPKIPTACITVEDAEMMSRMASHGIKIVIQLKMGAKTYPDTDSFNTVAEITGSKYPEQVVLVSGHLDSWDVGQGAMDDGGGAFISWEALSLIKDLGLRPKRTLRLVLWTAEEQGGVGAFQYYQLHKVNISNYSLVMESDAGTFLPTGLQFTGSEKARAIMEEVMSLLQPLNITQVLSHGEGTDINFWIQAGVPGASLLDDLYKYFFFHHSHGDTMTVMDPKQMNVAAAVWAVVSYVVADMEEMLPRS
UniProt O95639, whole entry, looked up: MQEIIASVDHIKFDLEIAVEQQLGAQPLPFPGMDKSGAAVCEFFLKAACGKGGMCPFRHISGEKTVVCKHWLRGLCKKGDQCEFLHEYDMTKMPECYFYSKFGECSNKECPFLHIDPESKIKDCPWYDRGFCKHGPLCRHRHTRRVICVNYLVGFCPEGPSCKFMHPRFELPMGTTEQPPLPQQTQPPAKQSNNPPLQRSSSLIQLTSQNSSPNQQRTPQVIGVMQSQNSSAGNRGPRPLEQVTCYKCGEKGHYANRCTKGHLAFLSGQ
UniProt Q9H9E3: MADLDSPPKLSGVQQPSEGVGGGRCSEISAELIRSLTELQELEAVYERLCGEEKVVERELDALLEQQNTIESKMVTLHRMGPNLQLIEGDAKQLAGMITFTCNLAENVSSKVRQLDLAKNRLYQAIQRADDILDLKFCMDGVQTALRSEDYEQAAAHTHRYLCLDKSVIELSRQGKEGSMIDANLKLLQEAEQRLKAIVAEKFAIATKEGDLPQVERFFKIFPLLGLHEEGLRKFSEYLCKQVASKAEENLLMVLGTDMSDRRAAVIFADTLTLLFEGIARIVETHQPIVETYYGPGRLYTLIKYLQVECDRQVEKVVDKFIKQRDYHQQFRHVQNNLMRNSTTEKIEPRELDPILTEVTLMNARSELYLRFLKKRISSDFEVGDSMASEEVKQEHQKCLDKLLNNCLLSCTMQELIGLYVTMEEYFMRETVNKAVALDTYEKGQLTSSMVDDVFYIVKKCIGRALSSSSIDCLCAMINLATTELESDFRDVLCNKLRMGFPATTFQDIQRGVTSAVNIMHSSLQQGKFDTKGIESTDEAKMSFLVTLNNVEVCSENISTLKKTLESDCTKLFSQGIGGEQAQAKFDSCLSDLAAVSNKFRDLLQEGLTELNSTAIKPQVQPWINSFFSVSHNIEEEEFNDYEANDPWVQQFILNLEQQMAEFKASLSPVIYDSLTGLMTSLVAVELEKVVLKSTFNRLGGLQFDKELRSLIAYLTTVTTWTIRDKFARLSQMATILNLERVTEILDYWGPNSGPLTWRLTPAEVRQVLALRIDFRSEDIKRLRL
UniProt Q99439: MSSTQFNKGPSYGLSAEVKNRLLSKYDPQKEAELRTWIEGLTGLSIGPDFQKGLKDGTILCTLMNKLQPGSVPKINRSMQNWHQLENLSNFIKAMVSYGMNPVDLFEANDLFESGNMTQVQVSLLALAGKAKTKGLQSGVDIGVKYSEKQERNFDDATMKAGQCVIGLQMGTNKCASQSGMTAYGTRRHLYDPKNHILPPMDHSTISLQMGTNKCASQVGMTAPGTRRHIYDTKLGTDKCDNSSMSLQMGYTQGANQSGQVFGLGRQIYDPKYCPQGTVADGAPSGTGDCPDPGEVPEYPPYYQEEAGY
UniProt Q6P4Q7: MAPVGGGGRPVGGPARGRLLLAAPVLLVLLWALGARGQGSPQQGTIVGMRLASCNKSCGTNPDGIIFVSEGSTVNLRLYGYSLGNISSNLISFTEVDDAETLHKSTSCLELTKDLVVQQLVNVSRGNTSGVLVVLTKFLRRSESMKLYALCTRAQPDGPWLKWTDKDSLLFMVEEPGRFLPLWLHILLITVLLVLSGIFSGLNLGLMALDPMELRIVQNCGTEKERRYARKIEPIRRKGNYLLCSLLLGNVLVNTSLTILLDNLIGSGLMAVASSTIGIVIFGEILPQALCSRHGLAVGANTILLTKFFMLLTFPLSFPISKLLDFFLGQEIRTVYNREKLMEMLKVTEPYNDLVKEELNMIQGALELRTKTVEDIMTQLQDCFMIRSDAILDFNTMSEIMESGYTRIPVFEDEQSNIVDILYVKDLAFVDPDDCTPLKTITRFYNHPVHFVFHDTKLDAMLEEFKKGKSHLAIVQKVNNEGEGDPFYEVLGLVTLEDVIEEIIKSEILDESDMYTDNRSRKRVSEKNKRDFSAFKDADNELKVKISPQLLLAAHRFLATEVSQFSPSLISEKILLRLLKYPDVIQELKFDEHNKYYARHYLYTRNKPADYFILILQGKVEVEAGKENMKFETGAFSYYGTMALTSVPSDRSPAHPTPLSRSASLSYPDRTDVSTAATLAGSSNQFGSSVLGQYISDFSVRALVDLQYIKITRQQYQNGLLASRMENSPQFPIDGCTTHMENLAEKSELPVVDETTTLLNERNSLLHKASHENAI
UniProt Q9GZY4: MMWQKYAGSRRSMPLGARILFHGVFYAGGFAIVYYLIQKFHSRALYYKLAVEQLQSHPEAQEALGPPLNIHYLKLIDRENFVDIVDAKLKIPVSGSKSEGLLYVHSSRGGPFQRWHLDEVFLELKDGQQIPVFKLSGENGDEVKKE
UniProt Q9UBI1, whole entry, looked up: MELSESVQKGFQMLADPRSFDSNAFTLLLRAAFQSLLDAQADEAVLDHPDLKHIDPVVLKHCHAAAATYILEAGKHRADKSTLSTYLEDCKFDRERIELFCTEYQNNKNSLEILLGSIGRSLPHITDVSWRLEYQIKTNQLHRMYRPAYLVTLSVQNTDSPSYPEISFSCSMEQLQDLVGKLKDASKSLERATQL
UniProt Q8IWV2: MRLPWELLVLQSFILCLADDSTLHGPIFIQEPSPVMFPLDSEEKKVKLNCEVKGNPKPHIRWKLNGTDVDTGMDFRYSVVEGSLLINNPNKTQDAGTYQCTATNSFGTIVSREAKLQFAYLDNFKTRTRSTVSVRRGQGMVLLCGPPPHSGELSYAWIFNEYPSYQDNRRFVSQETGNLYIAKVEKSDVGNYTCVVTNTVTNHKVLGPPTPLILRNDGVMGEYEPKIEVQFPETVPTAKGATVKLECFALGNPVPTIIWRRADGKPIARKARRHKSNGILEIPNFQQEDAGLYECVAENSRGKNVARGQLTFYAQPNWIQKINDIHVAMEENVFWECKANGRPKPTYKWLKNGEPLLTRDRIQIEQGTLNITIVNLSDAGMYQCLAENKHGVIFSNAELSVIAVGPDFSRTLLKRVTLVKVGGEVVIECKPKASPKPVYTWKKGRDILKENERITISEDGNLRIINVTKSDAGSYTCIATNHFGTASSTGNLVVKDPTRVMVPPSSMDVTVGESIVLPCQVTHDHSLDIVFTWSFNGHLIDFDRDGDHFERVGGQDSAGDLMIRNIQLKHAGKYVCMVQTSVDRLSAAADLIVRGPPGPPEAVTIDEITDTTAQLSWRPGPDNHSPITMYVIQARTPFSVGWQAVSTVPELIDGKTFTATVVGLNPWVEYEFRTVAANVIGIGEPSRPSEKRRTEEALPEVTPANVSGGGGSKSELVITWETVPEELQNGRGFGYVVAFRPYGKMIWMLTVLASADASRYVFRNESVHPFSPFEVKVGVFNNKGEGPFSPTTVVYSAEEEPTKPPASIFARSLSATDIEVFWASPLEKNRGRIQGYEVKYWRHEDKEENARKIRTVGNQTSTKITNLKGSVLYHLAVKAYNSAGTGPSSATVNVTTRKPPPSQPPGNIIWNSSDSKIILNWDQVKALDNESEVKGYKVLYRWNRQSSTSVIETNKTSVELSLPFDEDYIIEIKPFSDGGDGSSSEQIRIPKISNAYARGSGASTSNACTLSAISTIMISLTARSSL

Test in all cases: log2 fold change, soluble protein after heating vs DMSO (PISA); higher = thermal stabilisation; K562 lysate, 10 uM; active = over 0.2 and 3.5 SD of the protein, either way, in both replicates (recomputed)
Compound in assay [1]: NCC(=O)Nc1ccc(-n2nc(C(F)(F)F)cc2-c2ccc3c(ccc4ccccc43)c2)cc1
In a few lines: (§1)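 Following dounce homogenisation of K562 pellets in PBS pH 7.4 with 1 mM MgCl2, crude extract at 1 mg/mL protein was incubated for 30 min with 10 μM compound. Aliquots were then heated for 3 min over 48°C-58°C and pooled, NP-40 was added to 0.5% at 4°C, and soluble protein was recovered as the supernatant at 21,000xg for 90 min. Channel-sum-equalised TMTpro 16plex LC-MS/MS quantified this protein. Each value, from duplicates, is a log-two fold change in thermal stability relative to solvent controls.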

Compound in assay [2]: O=C(CCCCCCC(=O)Nc1ccccc1)NO [vorinostat]
The gist of the method:
as §1

Compound in assay [3]: O=C(O)c1ccc2c(c1)nc(Nc1cccc(Cl)c1)c1ccncc12 [silmitasertib]
The gist of the method:
as §1

Compound in assay [4]: O=C1NC(=O)C(c2cnc3ccccn23)=C1c1cn2c3c(cc(F)cc13)CN(C(=O)N1CCCCC1)CC2
The gist of the method: as §1

Compound in assay [5]: c1cn2cc(-c3ccc4cn[nH]c4c3)nc(Nc3ccc(N4CCOCC4)cc3)c2n1 [entospletinib]
The gist of the method:
as §1

In the case of CRADD (UniProt P78560), the log2 fold change in assay [1] was inactive: -0.004; in assay [2] it was inactive: 0.039; in assay [3] it was inactive: 0.041; in assay [4], inactive: -0.001; in assay [5], inactive: -0.02.
As to COX7A2 (UniProt P14406), the log2 fold change is inactive: -0.035 in assay [1]; inactive: 0.152 in assay [2]; inactive: -0.014 in assay [3]; inactive: 0.064 in assay [4]; inactive: 0.009 in assay [5].
For CPNE8 (UniProt Q86YQ8), the log2 fold change is inactive: 0.075 in assay [1], inactive: -0.054 in assay [2], inactive: 0.079 in assay [3] and inactive: 0.018 in assay [4].
As for COPZ1 isoform 4 (UniProt P61923), the log2 fold change in assay [1] is inactive: -0.068; in assay [2], inactive: 0.188; in assay [3] it was inactive: -0.032; in assay [4], inactive: 0.163; in assay [5], inactive: -0.025.
For COG7 (UniProt P83436), in that order: inactive: -0.013, active: -0.287, inactive: 0.06, inactive: 0.034 and inactive: 0.033.
With COX7C (UniProt P15954), the log2 fold change in assay [1] is inactive: -0.025; in assay [2] it was inactive: 0.045; in assay [3] it was inactive: 0.138; in assay [4] it was inactive: -0.033; in assay [5], inactive: -0.21.
As for COL14A1 (UniProt Q05707), the log2 fold change in assay [1] is inactive: -0.078; in assay [2], inactive: 0.2; in assay [3] it was inactive: -0.171; in assay [4], inactive: 0.
For the target COQ6 (UniProt Q9Y2Z9), the log2 fold change was inactive: -0.003 in assay [1]; inactive: 0.2 in assay [2]; inactive: 0.025 in assay [3]; inactive: -0.018 in assay [4]; inactive: 0.012 in assay [5].
For CORO7 isoform 3 (UniProt P57737), the log2 fold change in assay [1] is inactive: -0.045; in assay [2], inactive: -0.176; in assay [3], inactive: 0.042; in assay [4] it was inactive: 0.004; in assay [5], inactive: 0.005.
In the case of CNOT10 (UniProt Q9H9A5), the log2 fold change in assay [1] was inactive: -0.058; in assay [2] it was inactive: -0.147; in assay [3], inactive: 0.027; in assay [4], inactive: -0.008; in assay [5], inactive: 0.008.
For CORO1A (UniProt P31146), in that order: inactive: 0.094, active: -0.412, inactive: -0.003, inactive: 0.025 and inactive: 0.116.
For COMMD1 (UniProt Q8N668), the log2 fold change was inactive: 0.012 in assay [1]; inactive: -0.052 in assay [2]; inactive: 0.019 in assay [3]; inactive: -0.034 in assay [4]; inactive: 0.048 in assay [5].
On to COQ8A (UniProt Q8NI60), for which the log2 fold change is inactive: -0.043 in assay [1]; inactive: -0.042 in assay [2]; inactive: -0.161 in assay [3]; inactive: 0.016 in assay [4]; inactive: 0.053 in assay [5].
As for COPE (UniProt O14579), the log2 fold change in assay [1] is inactive: -0.105; in assay [2], inactive: -0.002; in assay [3], inactive: 0; in assay [4], inactive: -0.029; in assay [5], inactive: -0.044.
Regarding CNTRL (UniProt Q7Z7A1), the log2 fold change in assay [1] was inactive: -0.018; in assay [2], inactive: -0.092; in assay [3] it was inactive: 0.036; in assay [4] it was inactive: -0.008; in assay [5], inactive: -0.043.
CNIH4 (UniProt Q9P003): the log2 fold change is inactive: 0.09 in assay [1]; inactive: 0.08 in assay [2]; inactive: 0.055 in assay [3]; inactive: 0.114 in assay [4]; inactive: 0.038 in assay [5].
Take CPQ (UniProt Q9Y646): the log2 fold change in assay [1] was inactive: -0.001; in assay [2], inactive: 0.127; in assay [3], inactive: 0.019; in assay [4] it was inactive: 0.013; in assay [5] it was inactive: 0.006.
For CPSF4 (UniProt O95639), in that order: inactive: 0.047, inactive: -0.192, inactive: -0.035, inactive: -0.056 and inactive: -0.036.
As to COG4 (UniProt Q9H9E3), the log2 fold change in assay [1] is inactive: 0.101; in assay [2], active: -0.333; in assay [3] it was inactive: 0.022; in assay [4], inactive: -0.022; in assay [5] it was inactive: -0.023.
Take CNN2 (UniProt Q99439): the log2 fold change in assay [1] is inactive: 0.009; in assay [2], inactive: -0.089; in assay [3], inactive: -0.035; in assay [4], inactive: -0.03; in assay [5], inactive: 0.04.
As for CNNM4 (UniProt Q6P4Q7), the log2 fold change is inactive: -0.018 in assay [1]; inactive: 0.074 in assay [2]; inactive: -0.053 in assay [3]; inactive: -0.007 in assay [4]; inactive: -0.048 in assay [5].
COX4I1 (UniProt P13073): the log2 fold change in assay [1] is inactive: 0.035; in assay [2], inactive: 0.17; in assay [3] it was inactive: -0.023; in assay [4], inactive: 0.025; in assay [5], inactive: 0.022.
For COA1 (UniProt Q9GZY4), in that order: inactive: 0.014, inactive: 0.083, inactive: 0.028, inactive: -0.084 and inactive: -0.002.
Regarding COMMD3 (UniProt Q9UBI1), the log2 fold change in assay [1] was inactive: 0.042; in assay [2] it was inactive: -0.166; in assay [3], inactive: 0.004; in assay [4], inactive: 0.028; in assay [5], inactive: -0.038.
For CORO1C isoform 3 (UniProt Q9ULV4), in that order: inactive: 0.003, inactive: -0.099, inactive: 0.015, inactive: -0.01 and inactive: -0.013.
With CNTN4 (UniProt Q8IWV2), the log2 fold change in assay [1] is inactive: 0.173; in assay [2] it was inactive: -0.026; in assay [3], inactive: -0.09; in assay [4] it was inactive: 0.274; in assay [5], inactive: 0.06.
As for COX7B (UniProt P24311), the log2 fold change in assay [1] was inactive: -0.043; in assay [2], inactive: 0.081; in assay [3], inactive: 0; in assay [4] it was inactive: 0; in assay [5], inactive: 0.104.

For the origin of these results see the supplement of paper PMC10849652.
